Reference: publication PMC9547808
These are yes or no findings as the source states them, for the method shown. In cells and extracts the contact can be indirect. Some entries that bind do so weakly or less than the wild type.

Amino acid sequences for entries named in this document (tags omitted). Residues count along the entry.
UniProt P12023, residues 18-770: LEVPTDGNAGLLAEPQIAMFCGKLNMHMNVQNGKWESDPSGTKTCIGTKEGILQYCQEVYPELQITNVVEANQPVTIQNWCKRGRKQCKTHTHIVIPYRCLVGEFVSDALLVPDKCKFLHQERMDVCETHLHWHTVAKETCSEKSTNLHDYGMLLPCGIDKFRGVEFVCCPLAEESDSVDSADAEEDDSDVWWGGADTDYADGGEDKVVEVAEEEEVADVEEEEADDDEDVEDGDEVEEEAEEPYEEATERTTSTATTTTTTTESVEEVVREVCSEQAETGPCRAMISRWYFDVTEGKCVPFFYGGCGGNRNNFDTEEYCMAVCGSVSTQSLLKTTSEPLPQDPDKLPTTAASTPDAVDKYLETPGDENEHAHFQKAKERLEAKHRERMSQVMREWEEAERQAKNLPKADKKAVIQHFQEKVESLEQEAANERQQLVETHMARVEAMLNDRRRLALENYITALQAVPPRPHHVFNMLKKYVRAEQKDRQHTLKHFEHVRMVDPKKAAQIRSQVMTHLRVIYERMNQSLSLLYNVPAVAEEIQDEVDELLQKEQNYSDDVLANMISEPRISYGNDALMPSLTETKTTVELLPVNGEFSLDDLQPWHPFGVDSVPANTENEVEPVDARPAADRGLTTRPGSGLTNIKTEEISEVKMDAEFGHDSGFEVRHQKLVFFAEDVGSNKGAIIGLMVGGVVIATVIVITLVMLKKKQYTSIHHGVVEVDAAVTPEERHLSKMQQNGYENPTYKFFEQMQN

Columns and labels:
[1] = target: amyloid-beta precursor protein (APP), endogenous mouse (mouse (endogenous in HT-22 and in mouse hippocampus)) (UniProt P12023); assay: proximity ligation; in situ Duolink PLA on fixed control and CHCHD6 KO HT-22 cells with anti-APP and anti-CHCHD6 antibodies
[2] = target: amyloid-beta precursor protein (APP), endogenous mouse (mouse (endogenous in HT-22 and in mouse hippocampus)) (UniProt P12023); assay: proximity ligation; in situ Duolink PLA on mouse brain sections (hippocampus; WT, APP^NL-G-F and 5XFAD mice) with anti-APP and anti-CHCHD6 antibodies
[3] = target: amyloid-beta precursor protein (APP), endogenous mouse (mouse (endogenous in HT-22 and in mouse hippocampus)) (UniProt P12023); assay: co-IP; total protein lysates of control and CHCHD6 KO HT-22 cells (50 mM Tris-HCl pH 7.5, 150 mM NaCl, 1% Triton X-100); IP with anti-APP antibody overnight at 4 °C, protein A/G beads, WB

Measured: binding

B1: coiled-coil-helix-coiled-coil-helix domain containing 6 (CHCHD6), endogenous mouse (protein, UniProt Q91VN4 1-273)
chain: MGSAESAEARRVSFEMDEEERVRVLQGIRLSESVVNRMKDCSQPSAGEQLVPGFGPSSSAPVPTVPLPAISVPTVPAPTTPVPTAPSSSVRGLPGGTCKGPLTDVKVPSAESGGGLQSSAVKEDLKKFQQEQLAVQDEMVRVAKKEKEAAEKHLKASLPKKKASLTHEQQQSARLARELEDREAELSRRDTFYKEQQGRIQEKNAELYKLSSQQFHEAASKAESTIKPRRVEPVCSGLQAQILRCYRDHLHEVLLCSDLVKAYQHCVSTARKG
binds: all assays above
